# Source: US10028906B2, “Method and kit for treating a solid tumor and associated desmoplasia” (Rosalind Franklin Univ. of Medicine and Science, priority 2016, dated 2018)
# “Also recorded” adds a separate entry of the source. Not every detail of the peptide structures is certain; ends, links or a residue may be inferred. Where no end group is shown, it is not given here.
# Legend:
# FC1199 orthotopic tumors [1] = assay: in vivo FC1199 orthotopic tumors, tumor burden as pancreas weight; set-up: species or system mice
# Source text: FIGS. 1-24 show the in vitro and in vivo studies of CCNp37 (SEQ ID NO. 37) (Peptide 2 in the FIGS.) and CCNp38 (SEQ ID NO. 38) (Peptide 1 in the FIGS.) alone or in combination with a chemotherapeutic agent gemcitabine in treating pancreatic cells or orthotopic tumors implanted in the pancreas of mice. Gemcitibine is an example of an approved small molecule chemotherapeutic agent that is used in the clinic for pancreatic cancer, other suitable chemotherapeutic or immunotherapeutic agents are, for example, Abraxane (Paclitaxel Albumin-stabilized Nanoparticle Formulation), Afinitor (Everolimus), Erlotinib Hydrochloride, Everolimus, 5-FU (Fluorouracil Injection), Fluorouracil Injection, Gemcitabine Hydrochloride, Gemzar (Gemcitabine Hydrochloride), Irinotecan Hydrochloride Liposome, Mitomycin C, Mitozytrex (Mitomycin C), Mutamycin (Mitomycin C), Onivyde (Irinotecan Hydrochloride Liposome), Paclitaxel Albumin-stabilized Nanoparticle Formulation, Sunitinib Malate, Sutent (Sunitinib Malate), and Tarceva (Erlotinib Hydrochloride) and combinations of the same. Other suitable drug combinations for treating pancreatic cancer includes: FOLFIRINOX, GEMCITABINE-CISPLATIN, GEMCITABINE-OXALIPLATIN, and OFF. Suitable drugs for treatment for gastroenteropancreatic neuroendocrine tumors: Lanreotide Acetate, and Somatuline Depot (Lanreotide Acetate).
# (§1) FIGS. 6-24 show the experimental protocol and results of in vivo studies of orthotopic tumors derived from the Murine FC1199 cell line and implanted into Kras and P53 mice.
# FIGS. 18 and 19 show the protocol of a second in vivo experiment (Experiment 2).
# (§2) FIGS. 21-24 show the protocol for the second invo experiment on the effectiveness of administering Peptides 1 and 2±gemcitabine. […] In FIG. 21, peptide 1 or 2 was delivered on day 11 of the study after tumor implantation and gemcitabine was delivered on day 14. […] Ascites formation is a marker of late stage pancreatic cancer and can predict mortality.
# FC1199 orthotopic tumors [2] = assay: in vivo FC1199 orthotopic tumors, matrix deposition (desmoplasia); set-up: species or system mice
# Source text: (§3) While not wishing to be bound to any particular theory, it was hypothesized that the peptides might still be effective in blocking the formation and/or removing the formation of desmoplasia or tumor stroma associated with a solid tumor alone acting to prevent and or to treat cancer and as well to providing greater access of the chemotherapeutic or immunotherapeutic agent to the tumor. […] It is believed that many large, and smaller, molecule immunotherapeutic agents will not react with Peptides 1 and 2 and they may also be used in combination with one another.
# as §1
# FC1199 orthotopic tumors [3] = assay: in vivo FC1199 orthotopic tumors, ascites production; set-up: species or system mice; details: inferred from ascites data
# Source text: as §2
# FC1199 orthotopic tumors [4] = assay: in vivo FC1199 orthotopic tumors, vessel number/vessel density (angiogenesis); set-up: species or system mice
# Source text: as §3
# [5] = test system: Human MIA PaCa2-Luc, and Murine FC1199 pancreatic cancer cell lines; assay: in vitro cancer cell growth in two pancreatic cancer cell lines; type: cell-based; details: FIGS. 2-5
# Source text: (§4) Peptides were examined in two different pancreatic cancer cell lines to determine consistency of response. We sought to determine if there was efficacy of the peptide alone, or in combination with conventional chemotherapy, i.e., does it potentiate the effects of current therapy. The two cell lines used were Human MIA PaCa2-Luc, and Murine FC1199 (derived from tumors in KPC GEM mice).
# (§5) The in vitro studies used human MIA PaCa2-Luc, and Murine FC1199 cell lines.
# FC1199 cells = assay: in vitro FC1199 cell growth, gemcitabine repression; type: cell-based, Murine; details: FIGS. 3 and 5
# Source text: as §4, §5
# [6] = test system: MIA PaCa2-Luc cancer cells; assay: in vitro proliferation of MIA PaCa2-Luc cancer cells; type: cell-based, Human; details: FIG. 2
# Source text: as §4, §3, §5
sequence,measurement,setting,value
"FSGVSSDGRSSTPH [Peptide 2, FSGVSSDGRSSTPH]","tumor growth in terms of pancreas weight, day 13","FC1199 orthotopic tumors [1]; Experiment 1, Peptide 2 from day 3, day 13, vs control",reduced the tumor growth in terms of a lighter pancreas weight compared to the control
same,"tumor growth in terms of pancreas weight, day 24","FC1199 orthotopic tumors [1]; Experiment 1, gemcitabine from day 13, day 24, vs vehicle control",reducing cancer tumor growth in terms of pancreas weight when compared to a vehicle control and was comparable to gemcitabine
same,"tumor burden in terms of pancreas weight, day 14","FC1199 orthotopic tumors [1]; Experiment 2, day 14, vs control",effective in reducing the tumor burden in terms of reduced pancreas weight when compared to a control
same,"tumor burden in terms of pancreas weight, day 25","FC1199 orthotopic tumors [1]; Experiment 2, day 25, vs control",effective in reducing the tumor burden in terms of reduced pancreas weight when compared to a control
same,tumor burden / tumor growth as measured by pancreas weight,"FC1199 orthotopic tumors [1]; orthotopic FC1199 tumors in mice, no day stated",effective in reducing the growth of orthotopic FC1199 tumor burden as measured by pancreas weight; also recorded: effective in reducing tumor growth and weight
same,expansion and spread of the tumor and cancer cells,FC1199 orthotopic tumors [1]; overview FIG. 1,blocking the expansion and spread of the tumor and cancer cells
same,"matrix deposition (desmoplasia), day 13","FC1199 orthotopic tumors [2]; day 13 (early), vs control",reducing the matrix deposition (desmoplasia)
same,"matrix deposition (desmoplasia), day 24","FC1199 orthotopic tumors [2]; day 24 (later), vs control",reducing the matrix deposition (desmoplasia)
same,desmoplasia as measured by matrix deposition area,FC1199 orthotopic tumors [2]; no day stated,effective in treating desmoplasia or stroma associated with a solid tumor; also recorded: a reduction in desmoplasia as measured by matrix deposition area; also recorded: reduces the desmoplasia associated with a solid tumor when compared to a vehicle control
same,inflammation,FC1199 orthotopic tumors [3],reduce inflammation
same,"vessel number/vessel density, day 13","FC1199 orthotopic tumors [4]; day 13, vs control",a reduction in the vessel density when compared to a control
same,"vessel number/vessel density, day 24","FC1199 orthotopic tumors [4]; day 24, vs control",a reduction in the vessel density when compared to a control
same,angiogenesis as measured by vessel number/vessel density,FC1199 orthotopic tumors [4]; no day stated,reducing angiogenesis; also recorded: a reduction in angiogenesis as measured by vessel number/vessel density; also recorded: reduces angiogenesis associated with a solid tumor
same,cancer growth / cell proliferation in vitro,[5]; agent alone,did not slow cancer growth in vitro; also recorded: do not have an effect in cell proliferation
same,potentiation of the effects of gemcitabine in reducing cancer growth in vitro,[5]; combination with gemcitabine,did little or nothing to potentiate the effects of the chemotherapeutic agent gemcitabine in reducing cancer growth in vitro
same,potentiation of gemcitabine repression of FC1199 cell growth,FC1199 cells,did not potentiate the effects of gemcitabine in repressing of FC1199 cell growth
same,proliferation of MIA PaCa2-Luc cancer cells,[6],do not reduce the proliferation of MIA PaCa2-Luc cancer cells
